# Among all 300,000 compounds or so, about 5,400 (1.8%) were called active. The inconclusive results got no clear call from the source; some entries with a clear call stand among them for comparison. Calls follow the shape of the full dose curve; tested in HEK293 cells. Potencies of inconclusive entries are doubtful fits and often do not repeat.
# Assay: qHTS for inhibitors of binding or entry into cells for Marburg Virus
# Conditions: Marburg virus pseudotyped entry inhibition, cell reporter; activity change, negative = inhibition: at 37.8 µM (top of the series) unless noted
# % is scaled to controls: 0 for no effect and ±100 for the full control effect; potency is read from the fitted curve at half-maximal effect.
SMILES,Potency,"activity change, negative = inhibition"
CCc1cc2c(=O)n3c(nc2s1)-c1[nH]c2ccc(OC)cc2c1CC3,"inconclusive: 3.16 µM [activator, partial curve, poor fit]",–
COc1cccc(NC(=O)C2CC(=O)N/C(=N/NC(=O)c3ccc(C)cc3)S2)c1 (stereo not drawn),"inconclusive: 3.16 µM [inhibitor, single point]",–
Cc1oc(-c2ccc(Cl)cc2)cc1C(=O)O,"inconclusive: 7.94 µM [activator, partial curve, poor fit]",–
O=C(COc1ccccc1Cl)N1CCN(c2ccc([N+](=O)[O-])c(N3CCCCC3)c2)CC1,"inconclusive: 29.1 µM [inhibitor, single point]",–
Cc1ccc2c(CC(=O)NCC(C)(C)N3CCOCC3)coc2c1,"inconclusive: 2.82 µM [inhibitor, full curve, poor fit]",–
CCOC(=O)COc1cc([N+](=O)[O-])cc2cccnc12,–,inactive: 15.7% [at 46.1 µM]
COC(=O)C1=C(C)N(C)C(=S)N(C)C1c1ccc(OC)cc1 (stereo not drawn),"inconclusive: 6.31 µM [inhibitor, single point]",–
CN(C(=O)c1ccco1)c1nc2c(s1)CCCC2,"inconclusive: 7.08 µM [inhibitor, full curve, poor fit]",–
Cc1ccccc1CCN(C(=O)CN1C(=O)c2ccccc2S1(=O)=O)C(C(=O)NCC1CCCO1)c1ccncc1 (stereo not drawn),–,inactive: 22.7%
CC(=O)Nc1c(C(=O)N2CCOCC2)sc2nc3c(cc12)COC(C)(C)C3,–,inactive: -2.42%
CCOC(=O)Cn1cc(C(=O)c2cccs2)c2ccccc21,"inconclusive: 0.0651 µM [inhibitor, full curve, poor fit]",–
COc1cc(CN(C(=O)COc2ccc(Cl)cc2)c2ccccn2)cc(OC)c1OC,–,inactive: -12.9% [at 46.1 µM]
COc1ccc(OC)c(C2=NS(=O)(=O)N(C)C(C(=O)Nc3ccc(C(C)=O)cc3)=C2)c1,inactive,–
Cc1ccccc1C(=O)NC1CCN(CC(=O)NC2CCCCC2)CC1,"inconclusive: 3.55 µM [activator, single point]",–
CN1CCN(c2oc(-c3ccccc3Cl)nc2S(=O)(=O)c2ccccc2)CC1,"inconclusive: 35.5 µM [inhibitor, single point]",–
Cc1cc(/C=C(\C#N)C(=O)NCc2ccco2)c(C)n1-c1cccnc1,"inconclusive: 11.2 µM [activator, partial curve]",–
CC(C)c1ccc(Cc2cn3cc(-c4cc5ccccc5oc4=O)nc3s2)cc1,"inconclusive: 2.82 µM [inhibitor, partial curve, poor fit]",–
C=CCn1c2ccccc2c2nnc(SC(CC)C(=O)Nc3sc4c(c3C#N)CCCC4)nc21 (stereo not drawn),"inconclusive: 5.8 µM [inhibitor, full curve, poor fit]",–
CC/C(=N/NC(=O)c1ccc(Br)cc1)c1ccc(OCCN2CCOCC2)cc1,"inconclusive: 4.61 µM [activator, full curve, poor fit]",–
O=C(CN(Cc1ccccc1)C(=O)c1cc2c(s1)CCC2)NCc1cccs1,"inconclusive: 29.1 µM [inhibitor, single point]",–
Nc1ccn(Cc2ccccc2F)n1,"inconclusive: 14.1 µM [activator, single point]",–
O=C(Nc1cc2c3c(c1)C1CCCC1CN3CC1CCCC21)c1ccc([N+](=O)[O-])cc1 (stereo not drawn),"inconclusive: 6.31 µM [inhibitor, single point]",–

# Three structures already listed, sorted by molar mass, ascending:
SMILES,Potency,"activity change, negative = inhibition"
Cc1ccccc1C(=O)NC1CCN(CC(=O)NC2CCCCC2)CC1,"inconclusive: 3.55 µM [activator, single point]",–
CC(=O)Nc1c(C(=O)N2CCOCC2)sc2nc3c(cc12)COC(C)(C)C3,–,inactive: -2.42%
O=C(COc1ccccc1Cl)N1CCN(c2ccc([N+](=O)[O-])c(N3CCCCC3)c2)CC1,"inconclusive: 29.1 µM [inhibitor, single point]",–

# (listing goes on)

SMILES,Potency,"activity change, negative = inhibition"
COc1ccc(Nc2nc3ccccc3n2C)cc1,–,inactive: 2.68%
CCc1ccc(N(C(=O)c2snc(C(N)=O)c2N)C(C(=O)NCC2CCCO2)c2ccco2)cc1 (stereo not drawn),–,inactive: -14% [at 46.1 µM]
Cc1cc(C)c(NC(=O)c2cc(C(=O)O)ccc2C(=O)O)c([N+](=O)[O-])c1,–,inactive: -1.12% [at 46.1 µM]
Cc1ccc(-c2cnc3c(Cl)c(C)nn3c2)cc1,"inconclusive: 3.16 µM [inhibitor, full curve, poor fit]",–
O=C(Cc1ccccc1)N/N=C/C=C/c1ccccc1[N+](=O)[O-],–,inactive: -0.329% [at 14.2 µM]
N#Cc1ccc(C(c2nnnn2CCc2ccccc2)N2CCCCCC2)cc1 (stereo not drawn),active: 20.6 µM,–
O=C(Nc1ccc(N2CCCC2)cc1)c1cccc(Cl)c1,"inconclusive: 1 µM [activator, full curve, poor fit]",–
Cc1ccc(C(=O)Nc2ccc(N3CCN(C)CC3)cc2)cc1,"inconclusive: 3.98 µM [activator, partial curve, poor fit]",–
CCc1c(O)nc(SCc2ccc(F)cc2)[nH]c1=O,–,inactive: 13.5%
O=C(N/N=C/c1cccc([N+](=O)[O-])c1)c1ccc2c(c1)OCCO2,–,inactive: -0.956%
c1cnc2c(SCc3ccc(-c4nnco4)cc3)cccc2c1,"inconclusive: 0.562 µM [activator, full curve, poor fit]",–
CC(NC(=O)C12CC3CC(CC(C3)C1)C2)C(=O)N/N=C/C1=C(N2CCOCC2)C(=C\c2cccc([N+](=O)[O-])c2)/CC1 (stereo not drawn),"inconclusive: 35.5 µM [activator, single point]",–
Cc1cc(C)nc(NC(=O)c2cc(Br)ccc2Cl)n1,–,inactive: 7.15% [at 46.1 µM]
COC(=O)c1cc(NC(=O)c2ccc(-c3ccccc3)cc2)ccc1Cl,"inconclusive: 35.5 µM [inhibitor, single point]",–
COc1ccc(C2CC(c3ccccc3)=NN2C(=O)c2cccs2)cc1 (stereo not drawn),"inconclusive: 4.61 µM [inhibitor, single point]",–
Cc1ccccc1C(=O)Nc1sc2c(c1C(=O)O)CCC(C(C)(C)C)C2 (stereo not drawn),"inconclusive: 1.26 µM [inhibitor, full curve, poor fit]",–
Cc1cc([N+](=O)[O-])ccc1-c1ccc(C2Nc3ccccc3C(=O)N2O)o1 (stereo not drawn),"inconclusive: 7.3 µM [inhibitor, partial curve, poor fit]",–
CCOC(=O)C1(Cc2ccccc2)CCN(Cc2cccc(OC)c2O)CC1,"inconclusive: 22.4 µM [inhibitor, single point]",–
N#Cc1ncn(-c2ccc(Oc3ccccc3)cc2)c1N,"inconclusive: 6.31 µM [inhibitor, single point]",–
O=C(NCCc1ccc(Cl)cc1)c1cc2ccccn2n1,–,inactive: 16%
CCOC(=O)c1cc(C#N)c(N2CCNCC2)nc1C(F)(F)F,–,inactive: 13.1% [at 46.1 µM]

# Reference: PubChem BioAssay AID540276 (National Center for Advancing Translational Sciences (NCATS), 2011)
